The other results are listed elsewhere or left out. The main result of the screen is listed elsewhere. These columns were measured beside it and carry no call. Most of these compounds were active or inconclusive in the main read-out, so they are no random draw. Words in brackets tell the shape of the fitted curve; partial curves, single points and poor fits give uncertain potencies.
Experiment: qHTS Assay to Find Inhibitors of Chronic Active B-Cell Receptor Signaling
Details: ABC-DLBCL IkBa-CBG/CBR reporter, luminescence ratio (green luciferase fused to IkBa over red control in TMD8 lymphoma cells), 4 h
Method in brief: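 TMD8 human ABC-DLBCL cells with doxycycline-inducible IκBα–green luciferase fusion and unfused red luciferase, in 0.5% FBS medium; compounds up to 46 uM, 4 h at 37C. Green/red luminescence ratio, filter-overlap corrected, fitted to concentration-response curves.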

[1] = measured here: CBR red luminescence, cell number
[2] = measured here: IkBa-CBG green luminescence

Row | Compound | AC50 [1] | AC50 [2]
1 | CCOc1ccc(CCNC(=O)c2cccc(S(=O)(=O)N3CCCC3)c2)cc1OCC | 8.2 µM [rising, partial curve] | –
2 | COc1ccc(C)c2sc(NC(=O)C3=COCCO3)nc12 | 5.8 µM [falling, partial curve] | –
3 | COc1c(NC(C)=O)c2ccccc2c2ccccc12 | 1.78 µM [falling, full curve, poor fit] | 2.82 µM [rising, full curve, poor fit]
4 | CC(=O)c1ccc(NC(=O)Cc2ccsc2)cc1 | 6.31 µM [rising, single point] | –
5 | CC(C)(C)Cc1nnc(NS(=O)(=O)Cc2ccccc2)s1 | 1.26 µM [falling, partial curve, poor fit] | –
6 | O=C(/C=C/c1cccc(Cl)c1)Nc1ncccn1 | 18.4 µM [falling, partial curve] | –
7 | Cc1cc(Cl)ccc1NC(=S)N1CCN(Cc2ccccc2)CC1 | 18.4 µM [falling, partial curve, poor fit] | –
8 | Cc1ccc(OCC(=O)Oc2ccc(C(C)C)cc2)cc1 | 5.01 µM [rising, partial curve, poor fit] | –
9 | Cc1cccc(NC(=S)NCC2CCCO2)c1 (configuration not stated) | 11.6 µM [rising, partial curve, poor fit] | –
10 | COc1cc(C)ccc1OCCOc1cc(C)ccc1Cl | 12.6 µM [rising, partial curve, poor fit] | –
11 | COc1ccc(OCC(=O)Nc2ccc3c(c2)nc(CCN2CCOCC2)n3C)cc1 | 6.31 µM [falling, single point] | –
12 | CC(C)(C)Cc1nnc(NC(=O)CSc2ccccc2)s1 | 10 µM [falling, partial curve, poor fit] | –
13 | C=CCn1c(SCC(=O)Nc2ccc(F)cc2F)nnc1-c1cnccn1 | 4.47 µM [falling, full curve, poor fit] | –
14 | CC1CCN(CCc2nc3cc(NS(=O)(=O)c4ccc(F)cc4)ccc3n2C)CC1 | 13 µM [falling, partial curve, poor fit] | –
15 | Oc1ccc(Oc2ccc(Oc3ccc(O)cc3)cc2)cc1 | 35.5 µM [falling, single point] | –
16 | CC(=O)c1ccc(NC(=O)CSc2nc3ccccc3c(=O)n2CCCN2CCOCC2)cc1 | – | 5.17 µM [falling, partial curve, poor fit]
17 | Oc1ccc(-c2csc(Nc3cccnc3)n2)cc1 | 0.231 µM [rising, full curve, poor fit] | –
18 | COc1ccc(C2=Nn3c(nnc3-c3cccnc3)SC2)cc1OC | 3.98 µM [rising, partial curve, poor fit] | –
19 | COc1ccccc1Oc1ccc(S(=O)(=O)Nc2cccnc2)cc1 | 29.1 µM [rising, single point] | –
20 | Cc1cc(=O)c(C(=O)O)cn1Nc1ccc(Cl)cc1 | 0.00517 µM [rising, full curve, poor fit] | –

An excerpt from above in order of heavy-atom count, ascending:
Row | Compound | AC50 [1] | AC50 [2]
17 | Oc1ccc(-c2csc(Nc3cccnc3)n2)cc1 | 0.231 µM [rising, full curve, poor fit] | –
18 | COc1ccc(C2=Nn3c(nnc3-c3cccnc3)SC2)cc1OC | 3.98 µM [rising, partial curve, poor fit] | –
13 | C=CCn1c(SCC(=O)Nc2ccc(F)cc2F)nnc1-c1cnccn1 | 4.47 µM [falling, full curve, poor fit] | –

The list goes on:

Row | Compound | AC50 [1] | AC50 [2]
21 | COc1ccc(C(=O)NC(C(=O)NCc2ccccn2)C(C)C)cc1 (configuration not stated) | 2.82 µM [rising, full curve] | –
22 | CCOC(=O)c1cnc(-n2cc(C)cn2)nc1Nc1ccccc1OC | 23.1 µM [rising, single point] | –
23 | C#CCOCCOCCOCCNc1nc(N2CCN(C(=O)CCCCCCCCCCNC(=O)[C@H](CCCCN)n3cc(C)nn3)CC2)nc(N2CCN(C(=O)CCCCCCCCCCNC(=O)[C@@H]([C@H](C)CC)n3cc(CCCCCN)nn3)CC2)n1 | 29.1 µM [falling, single point] | –
24 | Cc1[nH]n(S(=O)(=O)Cc2ccccc2)c(=O)c1N=Nc1ccccc1Cl | 7.08 µM [rising, partial curve, poor fit] | –
25 | COc1ccccc1NC(=O)Oc1cccc(OC(=O)c2ccccc2)c1 | – | 5.01 µM [rising, partial curve, poor fit]
26 | O=C(NCC(=O)N1CCCCCCC1)c1ccccc1Cl | 3.26 µM [rising, partial curve, poor fit] | –
27 | COc1ccc(C(=O)N(C)Cc2ccccc2F)cc1S(=O)(=O)N1CCCC1 | 25.9 µM [falling, single point] | –
28 | CCn1c(=O)cc(OCC(=O)Nc2cc(C)ccn2)c2ccccc21 | 8.2 µM [falling, partial curve] | 7.31 µM [rising, partial curve, poor fit]
29 | CCc1ccccc1NC(=S)NCCSc1ccc(Cl)cc1 | 0.316 µM [rising, full curve, poor fit] | –
30 | CC(/C=C/c1ccc(N(C)C)cc1)=N\N=C1\NC(=O)CC(C(=O)Nc2ccccc2)S1 (configuration not stated) | – | 29.1 µM [falling, single point]
31 | Cc1cc(C)c(S(=O)(=O)N2CCCC(C(=O)N3CCOCC3)C2)c(C)c1 (configuration not stated) | 17.8 µM [falling, single point] | –
32 | Cc1ccc(C)c(S(=O)(=O)Nc2cc(SCC(=O)O)c(O)c3ccccc23)c1 | 29.1 µM [falling, single point] | –
33 | O=C1N=C(N2CCN(c3cccc4ccccc34)CC2)S/C1=C/c1cccs1 | 7.31 µM [rising, partial curve, poor fit] | –
34 | COc1ccccc1Nc1nc(N)nc(CN2CCC(C)CC2)n1 | 5.62 µM [rising, single point] | –
35 | CCCOc1ccc(C2C(C(=O)c3ccc(C)o3)=C(O)C(=O)N2Cc2ccco2)cc1 (configuration not stated) | 5.01 µM [rising, partial curve, poor fit] | –
36 | Cc1c(NS(=O)(=O)c2cccc(C(=O)N3CCCC3)c2)c(=O)n(-c2ccccc2)n1C | 2.91 µM [rising, partial curve] | –
37 | COc1cccc(N2CC(NC(=O)c3cccc4ccccc34)CC2=O)c1 (configuration not stated) | 29.1 µM [rising, single point] | –
38 | CCn1c(=O)c(C(=O)NCCc2ccc(OC)c(OC)c2)c(O)c2ccccc21 | 15.8 µM [falling, single point] | –
39 | COc1cc(CNCc2ccco2)ccc1OCc1ccccc1 | 0.794 µM [rising, full curve, poor fit] | –
40 | Cc1ccc2cc(C)c3nnc(SCC(=O)N4CCN(C(=O)c5ccco5)CC4)n3c2c1 | 14.6 µM [rising, single point] | –

— PubChem BioAssay AID493014 (National Center for Advancing Translational Sciences (NCATS), 2011)
